Some of these results come from one statement about several compounds together.
Target: Na+-K+-ATPase
Test: Enzymatic assay of ATPase activity
Type: biochemical
Conditions: purified enzyme, in vitro; read-out: 50% inhibition, IC50 value, of Na+-K+-ATPase activity
Procedure: The enzymatic assay of ATPase (adenosine 5′-triphosphatase, EC 3.6.1.3) followed the Sigma Prod. No. A-7510 protocol (Sigma-Aldrich, St. Louis, Mo., USA). Agents (0.05 ml) were pipetted with ATPase (0.05 ml, 0.5 units/ml, Sigma-Aldrich, St. Louis, Mo., USA), mixed and equilibrated for 5 min at 37° C. Taussky-Shorr reagent (10 ml of 10% ammonium molybdate in 10 N H2SO4) was pipetted to 70 ml H2O, 5 g of ferrous sulfate heptahydrate was added, and the volume was brought to 100 ml with H2O. Test supernatant (0.5 ml) and H2O (0.5 ml) were mixed and incubated at 25° C., and the absorbance read at A660 nm.
To determine whether the Na+-K+-ATPase is involved in the mechanism of action of CA and curcumin, the ability of these agents to inhibit the in vitro activity of the purified enzyme was assayed.

## C[C@H]1O[C@@H](O[C@H]2[C@@H](O)C[C@H](O[C@H]3[C@@H](O)C[C@H](O[C@H]4CC[C@@]5(C)[C@H](CC[C@@H]6[C@@H]5CC[C@]5(C)[C@@H](C7=CC(=O)OC7)CC[C@]65O)C4)O[C@@H]3C)O[C@@H]2C)C[C@H](O)[C@@H]1O [digitoxin, reference compound]
  IC50: < 100 nM

Reference: patent US9801844B2, “Methods and compositions for the treatment of cancer” (priority 2012, dated 2017)
